Experimental data as given in US20030233681, “ICE1, a regulator of cold induced transcriptome and freezing tolerance in plants” (Arizona Bd of Regents/Behalf of Univ. of Arizona, published 2003).

Target: T1, ICE1 (Arabidopsis thaliana) (UniProt Q9LSE2)
T1 sequence (limits assumed): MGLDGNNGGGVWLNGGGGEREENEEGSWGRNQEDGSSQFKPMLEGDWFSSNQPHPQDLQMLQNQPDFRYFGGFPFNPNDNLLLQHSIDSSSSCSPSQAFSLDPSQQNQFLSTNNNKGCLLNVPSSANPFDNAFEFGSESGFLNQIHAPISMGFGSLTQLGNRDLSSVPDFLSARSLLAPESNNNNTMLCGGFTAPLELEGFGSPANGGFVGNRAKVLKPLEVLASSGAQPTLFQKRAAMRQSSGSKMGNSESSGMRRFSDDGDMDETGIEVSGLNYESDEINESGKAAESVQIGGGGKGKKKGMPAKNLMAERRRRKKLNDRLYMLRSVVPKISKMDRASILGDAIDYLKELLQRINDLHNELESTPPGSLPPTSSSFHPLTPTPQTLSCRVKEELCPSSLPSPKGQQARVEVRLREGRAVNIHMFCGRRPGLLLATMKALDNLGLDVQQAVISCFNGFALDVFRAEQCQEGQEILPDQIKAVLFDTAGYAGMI
Experiment: competition with a labelled probe
Conditions: mutated competitor affected complex less than wild type; 50-250 fold excess; purified recombinant protein; protein details: His tag N-terminal (pET14b, E. coli BL21 DE3); variant of MYC-2

CTCTGGAACCAGTGCAGATC (double strand) [MYC-2 (M)]
binding result: binds more weakly

Weaker means in comparison with the reference protein, sequence or condition of that experiment. Tags and fusion partners may be left off the protein sequences shown.
